Part of at least one peptide drawing is inferred or uncertain, most often the ends. Some compounds share one wording; it may come from a single statement. Where a SMILES comes first, the peptide text is derived from it. The star is where a group is joined. Methacryloyl = C=C(C)C(=O)*; βAla = NCCC(=O)O
Experiments:
[1] = tested on: fibronectin; experiment: Cell adhesion-inhibitory test on fibronectin adsorbed plate (endothelium cells of blood vessel); format: cell-based, human
[2] = tested on: vitronectin; experiment: Cell adhesion-inhibitory test on vitronectin adsorbed plate (endothelium cells of blood vessel); format: cell-based, human
[3] = tested on: human plasma rich in platelet; experiment: Platelet coagulation-inhibitory activity in vitro (aggregometer, ADP or collagen stimulation); format: cell-based
Protocol: The platelet coagulation-inhibitory effect of the compounds of the present invention was assayed, in vitro, using human plasma rich in platelet. The experimental method will be described below.
To fresh human blood, there was added 1/9 volume of a 3.8% sodium citrate solution, the resulting mixture was centrifuged (1000 rpm; for 10 minutes) and the upper layer was separated as a plasma rich in platelet. The propenamide derivatives, the polymers thereof, the copolymers thereof or salts thereof obtained through lyophilization were dissolved in physiological saline to give a plurality of solutions having various concentrations ranging from 0 to 1.5 mg/ml. Each of the solutions (25 μl) was added to 200 μl of the plasma, incubated at 37° C. for 3 minutes, then a 50 μM of ADP (adenosine diphosphate) solution or a 200 μg/ml collagen solution was added to determine the extent of coagulation in terms of transmittance determined by an aggregometer.
Rate of Coagulation Inhibition=(1-T/T0)×100%
T0 : Transmittance observed when the propenamide derivatives, the polymers thereof, the copolymers thereof or salts thereof were not added.
T: Transmittance observed when the propenamide derivatives, the polymers thereof, the copolymers thereof or salts thereof were added.

Row | SMILES | Cell Adhesion-Inhibitory effect Against Fibronectin (number of adhered cells) ([1]; Concentration 0.25 mg/ml) | Cell Adhesion-Inhibitory effect Against Fibronectin (number of adhered cells) ([1]; Concentration 0.5 mg/ml) | Cell Adhesion-Inhibitory effect Against Fibronectin (number of adhered cells) ([1]; Concentration 1.0 mg/ml) | Cell Adhesion-Inhibitory effect Against Fibronectin (number of adhered cells) ([1]; Concentration 1.5 mg/ml) | Cell Adhesion-Inhibitory effect Against Vitronectin (number of adhered cells) ([2]; Concentration 10 mg/ml) | Cell Adhesion-Inhibitory effect Against Vitronectin (number of adhered cells) ([2]; Concentration 50 mg/ml) | Cell Adhesion-Inhibitory effect Against Vitronectin (number of adhered cells) ([2]; Concentration 100 mg/ml) | Cell Adhesion-Inhibitory effect Against Vitronectin (number of adhered cells) ([2]; Concentration 300 mg/ml) | Platelet Coagulation-Inhibitory Activity IC50 ADP Stimulation [3] | Platelet Coagulation-Inhibitory Activity IC50 Collagen Stimulation [3]
1 | N=C(N)NCCC[C@H](N)C(=O)NCC(=O)N[C@@H](CC(=O)O)C(=O)O [RGD, Arg-Gly-Asp] | C (not less than 100) | C (not less than 100) | C (not less than 100) | B (51 to 99) | C (not less than 200) | C (not less than 200) | B (101 to 199) | B (101 to 199) | A~B | A~B
2 | N=C(N)NCCC[C@H](N)C(=O)NCC(=O)N[C@@H](CC(=O)O)C(=O)N[C@@H](CO)C(=O)O [RGDS, Arg-Gly-Asp-Ser] | C (not less than 100) | C (not less than 100) | B (51 to 99) | B (51 to 99) | C (not less than 200) | B (101 to 199) | B (101 to 199) | A (not more than 100) | A~B | A~B
3 | C=C(C)C(=O)NCCC(=O)N[C@@H](CCCNC(=N)N)C(=O)NCC(=O)N[C@@H](CC(=O)O)C(=O)N[C@@H](CO)C(=O)O [Synthetic product 15, CH2 =CCH3 --CO--NH--C2 H4 --CO-RGDS] ({Methacryloyl-βAla}-RGDS-OH) | C (not less than 100) | C (not less than 100) | B (51 to 99) | B (51 to 99) | C (not less than 200) | C (not less than 200) | B (101 to 199) | B (101 to 199) | A~B | A~B

Reference: patent US6046289A, “Propenamide derivatives containing Arg-Gly-Asp polymers obtained therefrom” (priority 1990, dated 2000)
